Assay results: patent publication US20180289605A1, “NON-AQUEOUS COMPOSITION FOR HAIR FRIZZ REDUCTION” (The Procter & Gamble Company, priority 2017, published 2018)

Assay: Dynamic Vapor Sorption (DVS) % water reduction of treated hair
Conditions: Class II materials; hair 0% RH versus 90% RH, versus control hair
Procedure: The % water reduction is calculated as follows:
% Water reduction=[(B−A)×100]/B

SMILES: CC(C)CC(=O)O [Isovaleric acid]
- % Water reduction: 15%
